Results as given in PubChem BioAssay (Tox21).
Inconclusive means that the source gave no clear call. Such entries were picked first, then a sample of the others. Potencies beside an inconclusive call are fits to weak or partial responses and may not hold up. Activity calls are given as the source filed them. Calls come from the whole dose curve.

Sequences of proteins named here, by UniProt entry; tags and fusion partners are left off. A change or cut given only in a name is not applied to a line headed by its entry.
UniProt P19793: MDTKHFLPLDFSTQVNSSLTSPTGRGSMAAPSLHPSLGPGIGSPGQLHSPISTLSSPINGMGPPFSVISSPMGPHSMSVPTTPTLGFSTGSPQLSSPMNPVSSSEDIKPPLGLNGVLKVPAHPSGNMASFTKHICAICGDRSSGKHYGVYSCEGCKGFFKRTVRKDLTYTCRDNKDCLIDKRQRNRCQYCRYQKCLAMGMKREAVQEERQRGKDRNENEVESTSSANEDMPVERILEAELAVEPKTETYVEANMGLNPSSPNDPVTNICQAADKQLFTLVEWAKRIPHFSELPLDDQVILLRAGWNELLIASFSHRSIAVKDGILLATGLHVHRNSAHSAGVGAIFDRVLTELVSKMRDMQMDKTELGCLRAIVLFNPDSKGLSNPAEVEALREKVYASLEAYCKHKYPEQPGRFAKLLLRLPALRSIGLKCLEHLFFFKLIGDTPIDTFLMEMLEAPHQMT

What follows are molecules tested against Retinoic acid receptor RXR-alpha (Homo sapiens) (UniProt P19793) (assay: qHTS assay to identify small molecule agonists of the RXR signaling pathway (AID 1159527; note: nearly all actives have a fitted effect of over 35% in size)). Details: HEK293T RXRa-UAS-bla, beta-lactamase ratio, 16 h; activation: at 76.8 µM (top of the series) unless noted.
Method in brief: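 GeneBLAzer RXR-alpha-UAS-bla HEK 293T cells in 2% charcoal-stripped FBS medium were exposed to compounds for 16 hr at 37 C in agonist mode. Beta-lactamase reporter read as 460/530 nm FRET ratio after 2 hr substrate loading.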
% is set by controls: 0 for no effect and ±100 for the full control effect; potency is the fitted concentration of half-maximal effect.

Compound | activation | Potency
CC(C)(CO)C(O)C(=O)NCCCO (centres undefined) | inactive: 10.6% | 
CC(C)S | inactive: -0.539% | 
COc1ccccc1N1CCN(CCCNc2cc(=O)n(C)c(=O)n2C)CC1 | inactive: 0.779% [at 35.3 µM] | 
CCCCCCCCCCCC[N+](C)(C)CC(=O)[O-] |  | inconclusive: 24.5 µM [partial curve, poor fit]
CCOc1cc(OCC)c(C(C)=O)cc1OCC |  | inconclusive: 10.8 µM [activator, full curve]
NCCN |  | inactive
CC(Cc1ccccc1)(NC(=O)CN)c1ccccc1 (centres undefined) | inactive: -0.221% [at 35.3 µM] | 
CCCCOC(=O)c1ccccc1C(=O)OCC(CC)CCCC (centres undefined) | inconclusive: -15.9% | 
CC(N)CN (centres undefined) | inactive: 19.7% | 
Cc1ccc(Cl)cc1 |  | inactive
Nc1ccc(S(=O)(=O)c2ccc(N)cc2)cc1 |  | inconclusive: 9.77 µM [activator, full curve, poor fit]
CC(C)C1OCCN1CCOC(=O)NCCCCCCNC(=O)OCCN1CCOC1C(C)C (centres undefined) | inactive: 6.05% | 
CCN1CCCC1=O |  | inactive
O=C1OC2(c3ccccc31)c1ccc(O)c(Br)c1Oc1c2ccc(O)c1Br |  | inconclusive: 43.6 µM [rising, partial curve]
Cc1nc(C)c(C)nc1C |  | inconclusive: 43.6 µM [activator, partial curve, poor fit]
Cc1c(Cl)c(=O)oc2cc(O)ccc12 |  | inconclusive: 27.5 µM [fluorescent, partial curve]
O=[N+]([O-])c1cc[n+]([O-])cc1 | inconclusive: -41.8% | 
CN1C(C)(C)CCCC1(C)C | inactive: 4.87% [at 35.3 µM] | 
COc1cc(C)cc(O)c1 | inactive: -1.97% | 
O=[N+]([O-])c1ccc(Oc2ccc([N+](=O)[O-])cc2)cc1 |  | inconclusive: 0.707 µM [inhibitor, partial curve, poor fit]

Compound | activation | Potency
COc1ccc(Nc2ccccc2)c(C)c1 | inactive: 5.58% | 
COc1cccc(N(C)C(=S)Oc2ccc3c(c2)CCCC3)n1 | inconclusive: -30.9% [at 35.3 µM] | 
C=CCCC |  | inconclusive: 56 µM [falling, partial curve, poor fit]
CC(C)COC(=O)c1ccccc1 | inactive: 12.2% | 
CCc1c2c(nc3ccc(OC(=O)N4CCC(N5CCCCC5)CC4)cc13)-c1cc3c(c(=O)n1C2)COC(=O)[C@]3(O)CC |  | inconclusive: 19 µM [rising, partial curve]
CCN(CC)CC(=O)OCC(=O)[C@@]1(O)CC[C@H]2[C@@H]3CCC4=CC(=O)CC[C@]4(C)[C@H]3[C@@H](O)C[C@@]21C |  | inconclusive: 26.8 µM [rising, single point]
CCCCCCCCCCCC(=O)OC[C@@H](O)[C@H]1OC[C@H](OCCO)[C@H]1OCCO | inactive: -2.46% | 
CCCCCCCCS(=O)(=O)O | inactive: -2.98% | 
CC1(C)[C@H]2CC[C@]1(C)C(=O)C2 |  | inconclusive: 54.9 µM [rising, single point]
OCC(CO)N[C@H]1C[C@](O)(CO)[C@@H](O)[C@H](O)[C@H]1O | inactive: 9.06% [at 35.3 µM] | 
O=C1OC(=O)C2C3C=CC(C3)C12 (centres undefined) | inactive: 12.2% | 
CCCCOCCOCCOCCOCCO | inconclusive: 16.4% | 
N#Cc1ccccc1 |  | inactive
CCC1(c2ccccc2)C(=O)NCNC1=O |  | inconclusive: 61.7 µM [activator, single point]
CCOc1ccc(N=Nc2ccc(/C=C/c3ccc(N=Nc4ccc(OCC)cc4)cc3S(=O)(=O)O)c(S(=O)(=O)O)c2)cc1 | inconclusive: -13.8% | 
COc1ccc2cc(C=O)ccc2c1 |  | inconclusive: 1.07 µM [inhibitor, full curve]
C/C=C1\[C@H]2C=C(C)C[C@]1(N)c1ccc(=O)[nH]c1C2 | inconclusive: -1.02% [at 35.3 µM] | 
C=CCOC(=O)CCC1CCCCC1 |  | inconclusive: 1.23 µM [inhibitor, partial curve, poor fit]
CCC1(C)NC(=O)NC1=O (centres undefined) | inactive: 1.58% | 

A few values from the list.
Potency with CCC1(c2ccccc2)C(=O)NCNC1=O reads inconclusive: 61.7 µM [activator, single point]
activation with COc1ccc(Nc2ccccc2)c(C)c1 reads inactive: 5.58%
activation with CCCCOCCOCCOCCOCCO reads inconclusive: 16.4%
